PubChem BioAssay AID1259254, NCATS – 2017

Screen: 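Finding genes that stop cells copying their DNA twice in one cycle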 (primary screen)
Cell system: human HCT116 colorectal cancer cells
Knock-down reagent: single siRNA against human genes
Timing: 3 days
Detection: 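Imaged Hoechst DNA stain sorts each cell into a cycle phase by DNA amount; per plate, G2 fraction set to 0% for non-targeting and 100% for GMNN siRNA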
Direction: G2 robust z-score and G2 cells, % of GMNN control: higher = more G2 cells, more excess DNA replication; raw share of cells in G2: higher = larger share of cells with G2 DNA content
Hit rule: 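Active siRNAs have a G2 robust z of 5 or more median absolute deviations over the median, which in these data means about 38% or higher of GMNN control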
Here is a random part of about 59,000 deposited reagents. About 1,550 of them (2.6%) count as active. 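G2 share is only a proxy for re-replication; each gene was hit by three separate siRNAs, and active genes were retested.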 The raw values are shown without normalisation. The record does not give: the amount of reagent.

target gene	PubChem SID	G2 robust z-score	G2 cells, % of GMNN control	raw share of cells in G2 (%)	activity call
LOC644686 (retired record) (GeneID 644686)	SID160769300	-0.784	-2.55	2.67	inactive
LOC644686 (retired record) (GeneID 644686)	SID160769301	5.05	38.5	17.1	active
LOC644686 (retired record) (GeneID 644686)	SID160769302	-0.0253	2.79	3.96	inactive
KLB (GeneID 152831)	SID160759287	-0.344	0.55	6.22	inactive
KLB (GeneID 152831)	SID160759289	-0.162	1.83	5.47	inactive
KLB (GeneID 152831)	SID160759290	0.231	4.59	6.38	inactive
CDHR1 (GeneID 92211)	SID160754216	-0.998	-4.05	3.79	inactive
CDHR1 (GeneID 92211)	SID160754217	7.89	58.5	30.1	active
CDHR1 (GeneID 92211)	SID160754218	-0.926	-3.55	3.14	inactive
OTOG (GeneID 340990)	SID160764508	1.89	16.3	11.3	inactive
OTOG (GeneID 340990)	SID160764510	-0.186	1.66	6.62	inactive
OTOG (GeneID 340990)	SID160764511	0.478	6.33	6.6	inactive
MPV17 (GeneID 4358)	SID160733371	-0.0298	2.76	4.35	inactive
MPV17 (GeneID 4358)	SID160777440	-0.611	-1.33	4.41	inactive
MPV17 (GeneID 4358)	SID160777441	0.93	9.51	7.98	inactive
MYF5 (GeneID 4617)	SID160777641	3.39	26.8	15.7	inactive
MYF5 (GeneID 4617)	SID160777642	-0.836	-2.91	2.23	inactive
MYF5 (GeneID 4617)	SID160777643	2.78	22.6	14.4	inactive
PCDHA11 (GeneID 56138)	SID160744859	-0.426	-0.0307	6.42	inactive
PCDHA11 (GeneID 56138)	SID160744860	-0.26	1.14	4.85	inactive
PCDHA11 (GeneID 56138)	SID160744861	-0.959	-3.78	2.76	inactive

Next part, starting with the last 6 of the part before.
target gene	PubChem SID	G2 robust z-score	G2 cells, % of GMNN control	raw share of cells in G2 (%)	activity call
MYF5 (GeneID 4617)	SID160777641	3.39	26.8	15.7	inactive
MYF5 (GeneID 4617)	SID160777642	-0.836	-2.91	2.23	inactive
MYF5 (GeneID 4617)	SID160777643	2.78	22.6	14.4	inactive
PCDHA11 (GeneID 56138)	SID160744859	-0.426	-0.0307	6.42	inactive
PCDHA11 (GeneID 56138)	SID160744860	-0.26	1.14	4.85	inactive
PCDHA11 (GeneID 56138)	SID160744861	-0.959	-3.78	2.76	inactive
SERPINB9 (GeneID 5272)	SID160714292	-0.569	-1.04	4.46	inactive
SERPINB9 (GeneID 5272)	SID160714294	-0.123	2.1	4.13	inactive
SERPINB9 (GeneID 5272)	SID160731415	-0.602	-1.27	3.92	inactive
RAG1 (GeneID 5896)	SID160715617	0.367	5.55	6.89	inactive
RAG1 (GeneID 5896)	SID160715618	-0.167	1.79	5.36	inactive
RAG1 (GeneID 5896)	SID160715619	2.36	19.6	10.7	inactive
OR13J1 (GeneID 392309)	SID160725319	-0.804	-2.69	2.45	inactive
OR13J1 (GeneID 392309)	SID160725320	-0.103	2.24	5.72	inactive
OR13J1 (GeneID 392309)	SID160766752	-0.262	1.12	4.22	inactive
KRTAP4-6 (GeneID 81871)	SID160751042	9.58	70.4	27.5	active
KRTAP4-6 (GeneID 81871)	SID160751043	0.126	3.85	4.6	inactive
KRTAP4-6 (GeneID 81871)	SID160751044	-0.35	0.505	2.56	inactive
SNX6 (GeneID 58533)	SID160746933	3.38	26.8	12.2	inactive
SNX6 (GeneID 58533)	SID160746934	0.655	7.58	9.33	inactive
SNX6 (GeneID 58533)	SID160746935	-0.61	-1.33	3.22	inactive
ITGAM (GeneID 3684)	SID160775986	4.93	37.6	18	inactive
ITGAM (GeneID 3684)	SID160775987	0.675	7.72	7.85	inactive
ITGAM (GeneID 3684)	SID160775988	0.282	4.95	7.57	inactive
ODF1 (GeneID 4956)	SID160778353	-0.477	-0.387	3.07	inactive
ODF1 (GeneID 4956)	SID160778354	0.542	6.78	7.77	inactive
ODF1 (GeneID 4956)	SID160778355	-0.673	-1.76	4.03	inactive
ANGPT2 (GeneID 285)	SID160717499	-0.786	-2.56	4.16	inactive
ANGPT2 (GeneID 285)	SID160717511	6.62	49.6	21.6	active
ANGPT2 (GeneID 285)	SID160717521	-0.405	0.119	4.04	inactive
CDK7 (GeneID 1022)	SID160740953	3.12	24.9	13.8	inactive
CDK7 (GeneID 1022)	SID160740964	-0.626	-1.44	4.93	inactive
CDK7 (GeneID 1022)	SID160740975	0.252	4.74	5.69	inactive
